Compound in this experiment: Nc1ncnc2c1ncn2[C@@H]1O[C@H](COP(=O)(O)OP(=O)(O)OP(=O)(O)O)[C@@H](O)[C@H]1O [adenosine triphosphate]
Put plainly: NP40-soluble protein abundance relative to vehicle (solubility fold change) (ratio); higher = more soluble protein in presence of ATP. The method, boiled down:
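Eight concentrations, 0.1 to 10 mM, were tested on Jurkat crude lysate for 10 min at room temperature and then 3 min at 37 °C, in three independent experiments. The lysate was solubilised with 0.8% NP40 and benzonase, ultracentrifuged, and the supernatant TMT-labelled for LC-MS/MS. Each value is the fold change against the detergent-processed vehicle in its own replicate, from vsn-normalised intensities.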

The chains behind the UniProt entries cited, without tags or fusion partners. Where a name states a change or a piece, a line headed by the entry shows the natural chain unless it says otherwise.
UniProt Q2TBE0: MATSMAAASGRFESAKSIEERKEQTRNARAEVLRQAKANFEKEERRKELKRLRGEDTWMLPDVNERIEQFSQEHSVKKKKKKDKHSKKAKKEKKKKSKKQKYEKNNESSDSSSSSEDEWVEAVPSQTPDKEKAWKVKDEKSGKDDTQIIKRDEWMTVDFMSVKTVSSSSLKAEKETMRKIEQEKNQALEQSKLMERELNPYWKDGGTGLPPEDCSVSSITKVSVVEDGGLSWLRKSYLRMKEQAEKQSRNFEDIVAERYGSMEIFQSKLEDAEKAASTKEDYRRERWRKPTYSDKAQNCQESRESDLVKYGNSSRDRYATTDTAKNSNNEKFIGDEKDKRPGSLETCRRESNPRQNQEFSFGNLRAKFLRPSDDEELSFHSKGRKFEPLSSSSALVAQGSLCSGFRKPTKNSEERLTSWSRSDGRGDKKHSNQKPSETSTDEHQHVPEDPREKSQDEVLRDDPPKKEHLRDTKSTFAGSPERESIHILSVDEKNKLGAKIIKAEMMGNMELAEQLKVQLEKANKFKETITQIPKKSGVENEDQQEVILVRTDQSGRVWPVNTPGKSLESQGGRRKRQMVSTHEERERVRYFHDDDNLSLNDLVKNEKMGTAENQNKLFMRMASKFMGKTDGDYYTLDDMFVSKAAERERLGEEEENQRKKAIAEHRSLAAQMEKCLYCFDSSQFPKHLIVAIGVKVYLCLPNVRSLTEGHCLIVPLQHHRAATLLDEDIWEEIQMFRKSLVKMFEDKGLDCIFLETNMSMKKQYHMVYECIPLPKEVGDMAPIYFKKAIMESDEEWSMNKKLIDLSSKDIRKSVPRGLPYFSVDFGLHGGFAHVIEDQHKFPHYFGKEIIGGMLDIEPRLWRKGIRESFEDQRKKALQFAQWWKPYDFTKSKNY
UniProt Q3B726, whole entry: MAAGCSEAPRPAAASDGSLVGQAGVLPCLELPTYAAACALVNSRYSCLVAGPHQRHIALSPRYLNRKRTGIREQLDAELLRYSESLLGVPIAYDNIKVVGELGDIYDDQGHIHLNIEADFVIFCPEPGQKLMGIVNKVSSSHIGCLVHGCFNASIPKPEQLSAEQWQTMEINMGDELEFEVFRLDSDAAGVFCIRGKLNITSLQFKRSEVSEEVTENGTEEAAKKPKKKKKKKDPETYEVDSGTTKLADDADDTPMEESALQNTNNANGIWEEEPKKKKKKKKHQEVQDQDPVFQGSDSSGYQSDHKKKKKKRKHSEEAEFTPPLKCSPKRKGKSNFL
UniProt Q14687: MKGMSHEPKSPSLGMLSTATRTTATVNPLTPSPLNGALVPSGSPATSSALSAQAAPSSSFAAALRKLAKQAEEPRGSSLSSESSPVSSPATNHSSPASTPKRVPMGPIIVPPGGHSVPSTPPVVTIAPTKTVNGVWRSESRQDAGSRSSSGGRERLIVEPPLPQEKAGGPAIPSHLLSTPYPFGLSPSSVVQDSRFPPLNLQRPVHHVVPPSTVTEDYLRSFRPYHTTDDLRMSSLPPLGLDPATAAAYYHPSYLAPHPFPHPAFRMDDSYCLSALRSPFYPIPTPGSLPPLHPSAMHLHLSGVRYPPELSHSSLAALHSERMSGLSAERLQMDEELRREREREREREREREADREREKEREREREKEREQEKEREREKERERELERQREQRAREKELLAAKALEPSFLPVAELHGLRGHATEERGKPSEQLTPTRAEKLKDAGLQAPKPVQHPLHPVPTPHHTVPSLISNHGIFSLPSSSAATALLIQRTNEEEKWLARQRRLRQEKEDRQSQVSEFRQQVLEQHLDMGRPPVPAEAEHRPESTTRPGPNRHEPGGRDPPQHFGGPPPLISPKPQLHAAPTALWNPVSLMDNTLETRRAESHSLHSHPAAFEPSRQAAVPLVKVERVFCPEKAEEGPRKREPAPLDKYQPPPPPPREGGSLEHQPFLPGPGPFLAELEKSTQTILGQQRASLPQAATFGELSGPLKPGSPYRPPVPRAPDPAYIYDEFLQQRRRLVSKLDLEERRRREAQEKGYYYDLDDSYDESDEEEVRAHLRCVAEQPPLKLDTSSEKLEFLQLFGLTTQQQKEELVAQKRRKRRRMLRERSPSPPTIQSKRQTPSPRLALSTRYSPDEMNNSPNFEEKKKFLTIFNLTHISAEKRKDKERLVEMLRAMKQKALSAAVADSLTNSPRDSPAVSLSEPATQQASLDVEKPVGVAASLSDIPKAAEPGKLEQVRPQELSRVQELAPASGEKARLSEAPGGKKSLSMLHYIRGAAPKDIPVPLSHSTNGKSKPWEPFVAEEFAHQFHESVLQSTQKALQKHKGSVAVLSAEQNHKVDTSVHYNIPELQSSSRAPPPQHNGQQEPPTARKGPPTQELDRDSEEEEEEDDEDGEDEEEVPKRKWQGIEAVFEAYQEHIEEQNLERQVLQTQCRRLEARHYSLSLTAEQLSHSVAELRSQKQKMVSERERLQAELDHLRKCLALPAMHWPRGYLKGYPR
UniProt Q14671: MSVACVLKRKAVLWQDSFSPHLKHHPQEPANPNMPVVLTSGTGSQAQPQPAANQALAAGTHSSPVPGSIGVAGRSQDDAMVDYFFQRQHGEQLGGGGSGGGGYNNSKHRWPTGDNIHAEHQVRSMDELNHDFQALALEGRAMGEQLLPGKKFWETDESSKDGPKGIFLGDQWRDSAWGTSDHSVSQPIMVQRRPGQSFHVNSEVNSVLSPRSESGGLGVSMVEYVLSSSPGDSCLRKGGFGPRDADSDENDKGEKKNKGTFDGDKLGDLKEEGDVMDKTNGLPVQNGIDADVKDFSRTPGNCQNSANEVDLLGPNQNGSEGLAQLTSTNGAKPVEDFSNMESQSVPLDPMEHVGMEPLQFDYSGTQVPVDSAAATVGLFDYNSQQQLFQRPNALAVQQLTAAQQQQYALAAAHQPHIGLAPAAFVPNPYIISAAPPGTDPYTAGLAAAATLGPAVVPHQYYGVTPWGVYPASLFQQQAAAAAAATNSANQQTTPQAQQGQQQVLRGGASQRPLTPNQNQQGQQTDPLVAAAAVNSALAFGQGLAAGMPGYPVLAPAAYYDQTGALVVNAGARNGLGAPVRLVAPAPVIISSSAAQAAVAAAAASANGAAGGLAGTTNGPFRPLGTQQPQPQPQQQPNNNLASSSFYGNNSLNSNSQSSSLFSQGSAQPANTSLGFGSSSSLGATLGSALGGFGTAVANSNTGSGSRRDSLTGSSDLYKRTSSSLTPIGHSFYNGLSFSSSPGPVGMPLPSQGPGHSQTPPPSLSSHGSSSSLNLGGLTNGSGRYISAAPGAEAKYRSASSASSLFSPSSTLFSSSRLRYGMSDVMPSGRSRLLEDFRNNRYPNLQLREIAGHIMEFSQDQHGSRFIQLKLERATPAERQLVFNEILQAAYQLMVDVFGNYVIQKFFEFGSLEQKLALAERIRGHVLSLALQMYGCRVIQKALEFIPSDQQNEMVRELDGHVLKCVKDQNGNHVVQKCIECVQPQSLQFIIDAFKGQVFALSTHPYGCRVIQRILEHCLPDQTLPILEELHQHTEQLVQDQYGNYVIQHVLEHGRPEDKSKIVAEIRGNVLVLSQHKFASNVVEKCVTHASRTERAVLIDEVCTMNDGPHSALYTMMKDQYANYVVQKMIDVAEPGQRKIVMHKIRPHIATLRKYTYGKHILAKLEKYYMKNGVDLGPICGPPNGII
UniProt Q16666: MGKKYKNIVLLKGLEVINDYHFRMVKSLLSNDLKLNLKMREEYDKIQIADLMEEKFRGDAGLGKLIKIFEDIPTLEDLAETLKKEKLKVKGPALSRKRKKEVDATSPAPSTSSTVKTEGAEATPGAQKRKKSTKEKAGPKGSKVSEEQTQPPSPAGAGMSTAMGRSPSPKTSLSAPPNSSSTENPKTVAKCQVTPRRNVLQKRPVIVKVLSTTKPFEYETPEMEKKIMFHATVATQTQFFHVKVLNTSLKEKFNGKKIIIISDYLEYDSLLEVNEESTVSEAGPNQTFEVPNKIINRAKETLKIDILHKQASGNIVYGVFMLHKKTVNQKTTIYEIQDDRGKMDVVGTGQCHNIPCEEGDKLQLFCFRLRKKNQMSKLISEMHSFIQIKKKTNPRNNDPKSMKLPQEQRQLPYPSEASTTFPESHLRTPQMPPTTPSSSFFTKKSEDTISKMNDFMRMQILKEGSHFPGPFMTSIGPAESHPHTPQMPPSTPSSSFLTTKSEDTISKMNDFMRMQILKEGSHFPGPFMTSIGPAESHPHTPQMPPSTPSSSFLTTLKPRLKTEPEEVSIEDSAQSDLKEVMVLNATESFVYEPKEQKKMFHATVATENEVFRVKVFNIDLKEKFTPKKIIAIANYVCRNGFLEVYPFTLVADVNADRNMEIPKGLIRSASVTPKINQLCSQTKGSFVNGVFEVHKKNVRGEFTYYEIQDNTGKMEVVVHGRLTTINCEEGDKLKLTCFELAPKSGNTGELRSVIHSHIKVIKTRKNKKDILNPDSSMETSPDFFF
UniProt Q15910, whole entry, looked up: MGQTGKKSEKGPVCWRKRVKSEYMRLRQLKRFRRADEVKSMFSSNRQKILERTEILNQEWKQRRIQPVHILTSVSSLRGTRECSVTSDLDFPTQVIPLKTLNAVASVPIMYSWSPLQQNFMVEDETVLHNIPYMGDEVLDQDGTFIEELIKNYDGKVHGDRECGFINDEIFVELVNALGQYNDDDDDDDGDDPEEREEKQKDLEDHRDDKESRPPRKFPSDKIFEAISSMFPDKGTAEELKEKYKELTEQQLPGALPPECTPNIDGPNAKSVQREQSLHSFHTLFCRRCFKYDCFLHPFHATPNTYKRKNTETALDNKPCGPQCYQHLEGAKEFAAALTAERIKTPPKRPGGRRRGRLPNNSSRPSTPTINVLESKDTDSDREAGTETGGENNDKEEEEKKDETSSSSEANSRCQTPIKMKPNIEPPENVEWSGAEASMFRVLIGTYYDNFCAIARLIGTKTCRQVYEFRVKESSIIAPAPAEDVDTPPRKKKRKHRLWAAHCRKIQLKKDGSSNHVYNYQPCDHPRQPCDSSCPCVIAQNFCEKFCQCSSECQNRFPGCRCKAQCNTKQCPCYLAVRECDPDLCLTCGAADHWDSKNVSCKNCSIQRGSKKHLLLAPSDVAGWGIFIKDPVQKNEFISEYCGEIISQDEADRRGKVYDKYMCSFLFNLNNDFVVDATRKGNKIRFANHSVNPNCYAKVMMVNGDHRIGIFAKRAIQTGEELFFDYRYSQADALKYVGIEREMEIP
UniProt Q15042: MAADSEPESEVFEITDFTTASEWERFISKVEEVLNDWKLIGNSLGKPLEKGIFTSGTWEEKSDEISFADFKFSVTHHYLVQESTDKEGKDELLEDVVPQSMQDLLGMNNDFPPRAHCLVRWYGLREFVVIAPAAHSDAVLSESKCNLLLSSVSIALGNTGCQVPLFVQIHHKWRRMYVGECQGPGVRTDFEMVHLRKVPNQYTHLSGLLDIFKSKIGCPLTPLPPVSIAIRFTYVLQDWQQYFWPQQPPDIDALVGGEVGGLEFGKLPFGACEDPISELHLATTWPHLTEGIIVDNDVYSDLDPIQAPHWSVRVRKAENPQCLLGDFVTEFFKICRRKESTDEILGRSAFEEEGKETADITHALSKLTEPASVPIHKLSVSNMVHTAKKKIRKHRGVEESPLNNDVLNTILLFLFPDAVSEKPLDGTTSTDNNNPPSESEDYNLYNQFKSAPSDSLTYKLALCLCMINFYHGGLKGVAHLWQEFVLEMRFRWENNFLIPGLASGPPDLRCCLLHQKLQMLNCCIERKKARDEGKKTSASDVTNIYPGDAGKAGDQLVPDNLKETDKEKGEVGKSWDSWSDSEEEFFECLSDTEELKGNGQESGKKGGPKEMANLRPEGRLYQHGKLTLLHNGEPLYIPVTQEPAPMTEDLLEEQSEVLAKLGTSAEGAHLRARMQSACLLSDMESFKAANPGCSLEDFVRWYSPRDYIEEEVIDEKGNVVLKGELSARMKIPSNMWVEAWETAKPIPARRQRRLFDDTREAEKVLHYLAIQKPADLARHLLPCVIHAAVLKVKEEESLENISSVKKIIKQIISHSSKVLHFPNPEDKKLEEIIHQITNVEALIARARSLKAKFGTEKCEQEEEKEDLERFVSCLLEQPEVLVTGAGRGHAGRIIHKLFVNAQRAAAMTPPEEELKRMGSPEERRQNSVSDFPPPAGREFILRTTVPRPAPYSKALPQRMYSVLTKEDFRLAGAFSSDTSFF
UniProt Q3ZCQ8: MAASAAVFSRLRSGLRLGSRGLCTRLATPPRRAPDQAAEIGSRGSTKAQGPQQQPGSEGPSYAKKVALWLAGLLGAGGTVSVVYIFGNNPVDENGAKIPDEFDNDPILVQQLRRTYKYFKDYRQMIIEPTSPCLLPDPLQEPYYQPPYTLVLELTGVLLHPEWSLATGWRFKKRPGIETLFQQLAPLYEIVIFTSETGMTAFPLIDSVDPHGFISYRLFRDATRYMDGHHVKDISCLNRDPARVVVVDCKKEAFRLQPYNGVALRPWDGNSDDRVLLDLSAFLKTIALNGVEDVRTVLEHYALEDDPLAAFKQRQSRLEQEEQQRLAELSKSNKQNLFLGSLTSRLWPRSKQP

± gives the standard deviation of the averaged measurements. This is a selection; strong and weak results do not stand in their true shares. Small differences around the control level are noise.

For the target UniProt Q15365, the NP40-soluble protein abundance runs as follows: (concentration: 0.1mM) 0.9952 ± 0.0029; (concentration: 0.5mM) 0.988 ± 0.033.
In the case of UniProt Q15043 and related entries, the NP40-soluble protein abundance amounted to 0.946 ± 0.12 (concentration: 0.1mM) and 0.95 ± 0.096 (concentration: 0.5mM).
Take UniProt Q14980 and related entries: the NP40-soluble protein abundance worked out at 1.01 ± 0.058 (concentration: 0.1mM) and 1.17 ± 0.088 (concentration: 0.5mM).
TSR1 (UniProt Q2NL82): the NP40-soluble protein abundance was 0.934 ± 0.039 (concentration: 0.1mM) and 0.839 ± 0.056 (concentration: 0.5mM).
As for UniProt Q15257 and related entries, the NP40-soluble protein abundance (concentration: 0.1mM) worked out at 0.954 ± 0.044 and the NP40-soluble protein abundance (concentration: 0.5mM) was 0.978 ± 0.0086.
As to VPS26B (UniProt Q4G0F5), the NP40-soluble protein abundance runs as follows: (concentration: 0.1mM) 1.09 ± 0.18; (concentration: 0.5mM) 1.05 ± 0.13.
Take UniProt Q15149 and related entries: the NP40-soluble protein abundance reads like this: (concentration: 0.1mM) 1.01 ± 0.038; (concentration: 0.5mM) 1.13 ± 0.06.
For UniProt Q15173 and related entries, the NP40-soluble protein abundance is, setting by setting: (concentration: 0.1mM) 1.12 ± 0.018; (concentration: 0.5mM) 0.938 ± 0.12.
The matching figures for UniProt Q460N5 and related entries: 1.01 ± 0.047 and 0.999 ± 0.055.
The matching figures for UniProt Q16512 and related entries: 1.02 ± 0.052 and 1.03 ± 0.045.
As to ZNF800 (UniProt Q2TB10), the NP40-soluble protein abundance reads like this: (concentration: 0.1mM) 1.03 ± 0.12; (concentration: 0.5mM) 1.05 ± 0.1.
For “UniProt Q15642-2|Q15642-3|Q15642-4|W4VSQ9” the same measures were 0.985 ± 0.084 and 0.979 ± 0.049.
In the case of MLEC (UniProt Q14165), the NP40-soluble protein abundance reads like this: (concentration: 0.1mM) 1.02 ± 0.053; (concentration: 0.5mM) 1.02 ± 0.025.
Take UniProt Q16851 and related entries: the NP40-soluble protein abundance is, setting by setting: (concentration: 0.1mM) 1.01 ± 0.047; (concentration: 0.5mM) 1.02 ± 0.032.
With QRICH1 (UniProt Q2TAL8), the NP40-soluble protein abundance turned out to be 1.015 ± 0.0094 (concentration: 0.1mM) and 1.03 ± 0.024 (concentration: 0.5mM).
Consider CWF19L2 (UniProt Q2TBE0), for which the NP40-soluble protein abundance came to 1.03 ± 0.036 (concentration: 0.1mM) and 1.03 ± 0.03 (concentration: 0.5mM).
Regarding UniProt Q15542 and related entries, the NP40-soluble protein abundance turned out to be 1.07 ± 0.095 (concentration: 0.1mM) and 1.08 ± 0.07 (concentration: 0.5mM).
Take UniProt Q15154 and related entries: the NP40-soluble protein abundance reads like this: (concentration: 0.1mM) 0.995 ± 0.04; (concentration: 0.5mM) 1.01 ± 0.031.
As for UniProt Q1ED39, the NP40-soluble protein abundance came out at 0.976 ± 0.058 (concentration: 0.1mM) and 1.03 ± 0.027 (concentration: 0.5mM).
For the target UniProt Q16656 and related entries, the NP40-soluble protein abundance was found to be 1.01 ± 0.035 (concentration: 0.1mM) and 0.957 ± 0.017 (concentration: 0.5mM).
The matching figures for UniProt Q3B7J2 and related entries: 0.95 ± 0.1 and 0.971 ± 0.042.
On to ATP6AP1 (UniProt Q15904), for which the NP40-soluble protein abundance by setting is: (concentration: 0.1mM) 0.948 ± 0.074; (concentration: 0.5mM) 0.9504 ± 0.0065.
The matching figures for TOMM34 (UniProt Q15785): 0.946 ± 0.011 and 0.951 ± 0.032.
For UAP1L1 (UniProt Q3KQV9) the same measures were 1.06 ± 0.095 and 1.06 ± 0.094.
The matching figures for UniProt Q16513 and related entries: 1.069 ± 0.0066 and 1.06 ± 0.033.
Regarding PLS1 (UniProt Q14651), the NP40-soluble protein abundance was determined as 0.994 ± 0.04 (concentration: 0.1mM) and 0.981 ± 0.042 (concentration: 0.5mM).
In the case of DGUOK (UniProt Q16854), the NP40-soluble protein abundance worked out at 1.05 ± 0.1 (concentration: 0.1mM) and 1.03 ± 0.078 (concentration: 0.5mM).
For the target UniProt Q16563-2|Q16563, the NP40-soluble protein abundance stood at 0.897 ± 0.087 (concentration: 0.1mM) and 0.92 ± 0.066 (concentration: 0.5mM).
Turning to FRG1 (UniProt Q14331), the NP40-soluble protein abundance by setting is: (concentration: 0.1mM) 1.05 ± 0.062; (concentration: 0.5mM) 1.15 ± 0.098.
On to IAH1 (UniProt Q2TAA2), for which the NP40-soluble protein abundance runs as follows: (concentration: 0.1mM) 1.03 ± 0.036; (concentration: 0.5mM) 1.01 ± 0.037.
For FZD2 (UniProt Q14332) the same measures were 0.971 ± 0.035 and 1.05 ± 0.015.
For UniProt Q15006 the same measures were 1 ± 0.017 and 1.004 ± 0.0065.
In the case of CAMK4 (UniProt Q16566), the NP40-soluble protein abundance is 0.99 ± 0.029 (concentration: 0.1mM) and 1.02 ± 0.039 (concentration: 0.5mM).
The matching figures for ALG11 (UniProt Q2TAA5): 1.07 ± 0.16 and 0.997 ± 0.15.
On to SKIV2L (UniProt Q15477), for which the NP40-soluble protein abundance reads like this: (concentration: 0.1mM) 0.938 ± 0.029; (concentration: 0.5mM) 0.9318 ± 0.0087.
Turning to TWISTNB (UniProt Q3B726), the NP40-soluble protein abundance turned out to be 1.08 ± 0.023 (concentration: 0.1mM) and 1.09 ± 0.21 (concentration: 0.5mM).
Take UniProt Q16698 and related entries: the NP40-soluble protein abundance reads like this: (concentration: 0.1mM) 0.993 ± 0.0084; (concentration: 0.5mM) 0.99 ± 0.03.
For TBCC (UniProt Q15814) the same measures were 1.01 ± 0.016 and 0.99 ± 0.036.
As for UniProt Q14444, the NP40-soluble protein abundance by setting is: (concentration: 0.1mM) 1.03 ± 0.023; (concentration: 0.5mM) 1.04 ± 0.043.
As to UniProt Q16877 and related entries, the NP40-soluble protein abundance stood at 0.933 ± 0.21 (concentration: 0.1mM) and 1.05 ± 0.041 (concentration: 0.5mM).
On to UniProt Q14687 and related entries, for which the NP40-soluble protein abundance is, setting by setting: (concentration: 0.1mM) 0.958 ± 0.027; (concentration: 0.5mM) 0.972 ± 0.054.
For UniProt Q14671 and related entries the same measures were 0.961 ± 0.048 and 0.947 ± 0.028.
For the target UniProt Q15120 and related entries, the NP40-soluble protein abundance runs as follows: (concentration: 0.1mM) 1.14 ± 0.061; (concentration: 0.5mM) 1.32 ± 0.15.
Take UniProt Q16666 and related entries: the NP40-soluble protein abundance (concentration: 0.1mM) was 1.08 ± 0.051 and the NP40-soluble protein abundance (concentration: 0.5mM) came to 1.33 ± 0.051.
As for UniProt Q16401 and related entries, the NP40-soluble protein abundance reads like this: (concentration: 0.1mM) 1.02 ± 0.046; (concentration: 0.5mM) 1.01 ± 0.022.
For UniProt Q15910 and related entries the same measures were 1.07 ± 0.044 and 1.17 ± 0.06.
As for SURF2 (UniProt Q15527), the NP40-soluble protein abundance by setting is: (concentration: 0.1mM) 0.915 ± 0.071; (concentration: 0.5mM) 0.886 ± 0.072.
As for UniProt Q14669-2|Q14669-3, the NP40-soluble protein abundance by setting is: (concentration: 0.1mM) 1.05 ± 0.019; (concentration: 0.5mM) 1.15 ± 0.037.
In the case of UniProt Q15042 and related entries, the NP40-soluble protein abundance is, setting by setting: (concentration: 0.1mM) 1.04 ± 0.017; (concentration: 0.5mM) 1.03 ± 0.052.
Consider FSCN1 (UniProt Q16658), for which the NP40-soluble protein abundance is 1.05 ± 0.065 (concentration: 0.1mM) and 1.04 ± 0.068 (concentration: 0.5mM).
Turning to DPYSL2 (UniProt Q16555), the NP40-soluble protein abundance (concentration: 0.1mM) was found to be 1.05 ± 0.066 and the NP40-soluble protein abundance (concentration: 0.5mM) was found to be 1.03 ± 0.073.
For UniProt Q15370 the same measures were 0.915 ± 0.041 and 0.929 ± 0.079.
For the target ZYX (UniProt Q15942), the NP40-soluble protein abundance was found to be 0.972 ± 0.017 (concentration: 0.1mM) and 0.993 ± 0.051 (concentration: 0.5mM).
Take UniProt Q15118 and related entries: the NP40-soluble protein abundance by setting is: (concentration: 0.1mM) 1.18 ± 0.05; (concentration: 0.5mM) 1.32 ± 0.14.
For NPAT (UniProt Q14207) the same measures were 1.01 ± 0.076 and 0.976 ± 0.038.
For UniProt Q15208 the same measures were 1.11 ± 0.038 and 1.1 ± 0.066.
For POLD3 (UniProt Q15054) the same measures were 0.961 ± 0.065 and 0.992 ± 0.063.
Regarding POLA2 (UniProt Q14181), the NP40-soluble protein abundance is, setting by setting: (concentration: 0.1mM) 0.999 ± 0.016; (concentration: 0.5mM) 0.975 ± 0.024.
In the case of UniProt Q3ZCQ8 and related entries, the NP40-soluble protein abundance runs as follows: (concentration: 0.1mM) 1.02 ± 0.067; (concentration: 0.5mM) 1 ± 0.086.

Values taken from the supplement of paper PMC6411743.
